Consider 26 compounds from PubChem BioAssay AID248 (DTP/NCI, 2004).

Molecules are shown by their SMILES. The list is a part of this screen's results and no random one: it gathers tests that were run many times, whatever their T/C, doses with no T/C, and many T/C values between a quarter and a half above the control. Other doses and runs of a compound stand elsewhere. T/C: endpoint of the treated group in % of that of the vehicle group. Some entries give survivors of the animals treated and no T/C: the source holds a T/C of zero for them, seemingly a mark for toxic or unscored doses. Some doses without a T/C left all or most animals alive at the check, yet need not have been tolerated: the source hardly ever lists a survival T/C far under the control, and the zero likely stands for such cases as well. Survivors were counted at the toxicity check, usually on the fifth day, unless a day is given; later deaths do not show. Schedules are NCI's codes, taken here to give the interval after Q, in days (D) or hours (H), and the number of doses after X. Some entries hold several experiments; their values stand side by side, smallest first. Some structures stand for samples that the source files as different forms (salt, stereo form or complex); doses refer to the form tested. Where survival is the endpoint, the PubChem record calls one and a half times the control and up active, and a quarter to a half above the control has no call in these data; cut-offs in other NCI protocols can differ. Some schedule codes hold Z or #, which are not explained here.

For the assay, the system named is L1210 leukemia ip in BDF1 mice, survival T/C. The assay is described as follows: NCI In Vivo Anticancer Drug Screen. Data for tumor model L1210 Leukemia (intraperitoneal) in B6D2F1 (BDF1) mice. To be noted: T/C endpoint: mean survival time, higher T/C = longer survival.
[1] abbreviates: dose: 50.0 mg/kg/injection, schedule: Q04DX002 (ip), vehicle: Klucel (hydroxypropylcellulose) (HPC).
Where [2] appears, read: dose: 100.0 mg/kg/injection, schedule: Q04DX002 (ip), vehicle: Klucel (hydroxypropylcellulose) (HPC).
The mark [3] stands for this setting: dose: 200.0 mg/kg/injection, schedule: Q01DX009 (ip), vehicle: Klucel (hydroxypropylcellulose) (HPC).
Setting [4] is: dose: 400.0 mg/kg/injection, schedule: Q04DX003 (ip), vehicle: Klucel (hydroxypropylcellulose) (HPC).
Setting [5] is: dose: 400.0 mg/kg/injection, schedule: Q04DX002 (ip), vehicle: Klucel (hydroxypropylcellulose) (HPC).
Setting [6] is: dose: 300.0 mg/kg/injection, schedule: Q01DX001 (ip), vehicle: saline.
[7] abbreviates: dose: 400.0 mg/kg/injection, schedule: Q01DX009 (ip), vehicle: Klucel (hydroxypropylcellulose) (HPC).
[8] abbreviates: dose: 400.0 mg/kg/injection, schedule: Q01DX001 (ip), vehicle: saline.
[9] abbreviates: dose: 200.0 mg/kg/injection, schedule: Q04DX003 (ip), vehicle: saline with Tween-80.
[10] abbreviates: dose: 400.0 mg/kg/injection, schedule: Q04DX003 (ip), vehicle: saline with Tween-80.
Setting [11] is: dose: 200.0 mg/kg/injection, schedule: Q04DX003 (ip), vehicle: Klucel (hydroxypropylcellulose) (HPC).

Take `CN(C)c1ccc(C#N)cc1`: the survivor count is, setting by setting: (dose: 12.5 mg/kg/injection, schedule: Q04DX002 (ip), vehicle: Klucel (hydroxypropylcellulose) (HPC)) 3 of 3; (dose: 25.0 mg/kg/injection, schedule: Q04DX002 (ip), vehicle: Klucel (hydroxypropylcellulose) (HPC)) 0 of 3; under setting [1], 0 of 3; under setting [2], 0 of 3.

`CC(=O)Nc1ccc(NC(=O)c2cccc3ccccc23)cc1`: the survivor count under setting [3] is 5 of 6 and 6 of 6.

Regarding `COc1c(Cl)c(C)c(Cl)c(C)c1C#CC(=O)O`, under setting [4], the survivor count is given as 1 of 6.

For the compound `C[As](C)(=S)[As](C)(C)=S`, the T/C under setting [1] is 129 % of control. In addition, the survivor count was 3 of 3 under setting [1]; 1 of 3 and 3 of 3 under setting [2]; 0 of 3 (dose: 200.0 mg/kg/injection, schedule: Q04DX002 (ip), vehicle: Klucel (hydroxypropylcellulose) (HPC)); 0 of 3 under setting [5].

Regarding `CCCC(C)NCCOC(=O)Nc1ccccc1` (configuration not stated), the survivor count under setting [6] is reported as 0 of 6.

Turning to `CC(=O)NN(N=O)C(C)c1ccccc1` (configuration not stated), the survivor count under setting [5] is 0 of 3.

For `O=C(O)C1C2CC3CC(C2)CC1C3` (configuration not stated), the T/C under setting [5] was 139 % of control.

With `NC1CC1c1ccccc1` (configuration not stated), the survivor count reads like this: (dose: 12.5 mg/kg/injection, schedule: Q04DX003 (ip), vehicle: saline) 0 of 6; (dose: 150.0 mg/kg/injection, schedule: Q01DX009 (ip), vehicle: saline) 0 of 6; (dose: 200.0 mg/kg/injection, schedule: Q04DX003 (ip), vehicle: saline) 2 of 4 and 3 of 6; (dose: 225.0 mg/kg/injection, schedule: Q01DX009 (ip), vehicle: saline) 0 of 6; (dose: 335.0 mg/kg/injection, schedule: Q01DX009 (ip), vehicle: saline) 0 of 6; (dose: 400.0 mg/kg/injection, schedule: Q04DX003 (ip), vehicle: saline) 1 of 6.

Consider `CCC[CH2][Sn]([CH2]CCC)([O][Sn]([CH2]CCC)([CH2]CCC)[S]C#N)[S]C#N`, for which the survivor count reads like this: (dose: 25.0 mg/kg/injection, schedule: Q01DX009 (ip), vehicle: saline with Tween-80) 0 of 3; (dose: 50.0 mg/kg/injection, schedule: Q01DX009 (ip), vehicle: saline with Tween-80) 0 of 3; (dose: 100.0 mg/kg/injection, schedule: Q01DX009 (ip), vehicle: saline with Tween-80) 0 of 3 and 0 of 6; (dose: 200.0 mg/kg/injection, schedule: Q01DX009 (ip), vehicle: saline with Tween-80) 0 of 6; (dose: 400.0 mg/kg/injection, schedule: Q01DX009 (ip), vehicle: saline with Tween-80) 0 of 6.

For `O=C(Nc1cccc(F)c1)Sc1ccc(Cl)cc1`, the survivor count is 3 of 6 and 5 of 6 under setting [3]; 1 of 6 under setting [7].

`Cc1ccc(Br)c([N+](=O)[O-])c1`: the T/C (dose: 50.0 mg/kg/injection, schedule: Q01DX001 (ip), vehicle: carboxymethylcellulose (CMC)) is 125 % of control.

Consider `NC(=O)CS`, for which the survivor count under setting [8] is given as 1 of 4.

Regarding `Cc1cccc(C2=CCCCC2)c1`, under “dose: 400.0 mg/kg/injection, schedule: Q01DX001 (ip), vehicle: carboxymethylcellulose (CMC)”, the survivor count was 2 of 4.

On to `O=C(Nc1ccc(C2=NCCN2)cc1)c1cc(C(=O)Nc2ccc(C3=NCCN3)cc2)ncn1`, for which the T/C by setting is: (dose: 3.75 mg/kg/injection, schedule: Q01DX Z (ip), vehicle: carboxymethylcellulose (CMC)) 132 % of control; (dose: 7.5 mg/kg/injection, schedule: Q01DX Z (ip), vehicle: carboxymethylcellulose (CMC)) 143 % of control; (dose: 79.0 mg/kg/injection, schedule: Q01DX001 (ip), vehicle: other) 138 % of control; (dose: 120.0 mg/kg/injection, schedule: Q01DX001 (ip), vehicle: carboxymethylcellulose (CMC)) 143 % of control; (dose: 120.0 mg/kg/injection, schedule: Q01DX001 (ip), vehicle: other) 143 % of control; (dose: 270.0 mg/kg/injection, schedule: Q01DX001 (ip), vehicle: other) 149 % of control. Also, the survivor count was 1 of 6 (dose: 60.0 mg/kg/injection, schedule: Q01DX015 (ip), vehicle: methylcellulose (MC)); 2 of 6 (dose: 75.0 mg/kg/injection, schedule: Q01DX001 (ip), vehicle: methylcellulose (MC)); 0 of 6 (dose: 120.0 mg/kg/injection, schedule: Q01DX015 (ip), vehicle: methylcellulose (MC)); 0 of 6 (dose: 120.0 mg/kg/injection, schedule: Q01DX015 (ip), vehicle: other); 0 of 6 (dose: 150.0 mg/kg/injection, schedule: Q01DX001 (ip), vehicle: methylcellulose (MC)); 0 of 6 (dose: 300.0 mg/kg/injection, schedule: Q01DX001 (ip), vehicle: methylcellulose (MC)). In addition, the survivor count (dose: 405.0 mg/kg/injection, schedule: Q01DX001 (ip), vehicle: other) is 0 of 10.

Take `COc1ccc2c(c1)C1(C)CCN(CCc3ccccc3)C(C2)C1C` (configuration not stated): the survivor count (dose: 300.0 mg/kg/injection, schedule: Q01DX001 (ip), vehicle: carboxymethylcellulose (CMC)) is 2 of 6.

For `COCCc1cccc(C)n1`, the survivor count (dose: 400.0 mg/kg/injection, schedule: Q01DX009 (ip), vehicle: saline) is on record as 0 of 6.

In the case of `NOc1ccc([N+](=O)[O-])cc1[N+](=O)[O-]`, the survivor count under setting [9] is listed as 0 of 6 and the survivor count under setting [10] is given as 0 of 6.

As for `O=C(O)c1cc(S(=O)(=O)Cl)cc(S(=O)(=O)Cl)c1`, the survivor count is given as 0 of 6 (dose: 150.0 mg/kg/injection, schedule: Q01DX001 (ip), vehicle: saline) and 1 of 6 under setting [6].

For `C1CCC(CC2CCNCC2)CC1`, the survivor count by setting is: (dose: 100.0 mg/kg/injection, schedule: Q04DX003 (ip), vehicle: saline with Tween-80) 1 of 6; under setting [9], 0 of 6; under setting [10], 0 of 6.

For the compound `CN(C)C(=O)c1cc(C(=O)N(C)C)c[n+](Cc2c(Cl)cccc2Cl)c1`, the survivor count (dose: 300.0 mg/kg/injection, schedule: Q04DX003 (ip), vehicle: saline) was 6 of 6.

As for `O=C(O)CS(=O)(=O)CC(=O)O`, the survivor count under setting [10] is 0 of 6.

Take `COCC/C(COC)=N/N`: the survivor count under setting [8] was 0 of 4.

Regarding `COc1cc(/C=C2\C(O)C3CCN2CC3)cc(OC)c1OC` (configuration not stated), the survivor count (dose: 400.0 mg/kg/injection, schedule: Q04DX002 (ip), vehicle: saline) was 0 of 3.

Regarding `O=C(NCCCl)Sc1ccc(Cl)cc1`, the survivor count is, setting by setting: (dose: 100.0 mg/kg/injection, schedule: Q04DX003 (ip), vehicle: Klucel (hydroxypropylcellulose) (HPC)) 4 of 6; under setting [11], 4 of 6; under setting [4], 1 of 6.

Consider `CCCCCC(Br)C(Br)CC(Br)C(Br)CCCCCCCC(=O)O` (configuration not stated), for which the survivor count under setting [11] is listed as 6 of 6.

As to `CC[CH2][Sn]([CH2]CC)([O]S(C)(=O)=O)[O]S(C)(=O)=O`, the survivor count by setting is: (dose: 6.25 mg/kg/injection, schedule: Q01DX009 (ip), vehicle: Klucel (hydroxypropylcellulose) (HPC)) 1 of 3; (dose: 12.5 mg/kg/injection, schedule: Q01DX009 (ip), vehicle: Klucel (hydroxypropylcellulose) (HPC)) 0 of 3; (dose: 25.0 mg/kg/injection, schedule: Q01DX009 (ip), vehicle: Klucel (hydroxypropylcellulose) (HPC)) 0 of 3; (dose: 50.0 mg/kg/injection, schedule: Q01DX009 (ip), vehicle: Klucel (hydroxypropylcellulose) (HPC)) 0 of 3; (dose: 100.0 mg/kg/injection, schedule: Q01DX009 (ip), vehicle: Klucel (hydroxypropylcellulose) (HPC)) 0 of 3 and 0 of 6; under setting [3], 0 of 6. For the same compound, the survivor count under setting [7] is 0 of 6.
